Measurements reported in PubChem BioAssay AID1345085 (National Center for Advancing Translational Sciences (NCATS), 2018).
The shares of active, inactive and inconclusive entries below differ from those in the screen. Where the call is inconclusive, the potency comes from a doubtful curve fit. Active and inactive are the calls of the source. Calls come from the whole dose curve; as a rule, active = well fitted cell-killing curve with a large enough effect; inconclusive = small, poorly fitted or top-dose-only effect, or effect the other way; inactive = no such curve, though single readings can be large or run the other way.

What follows are molecules tested on Es-2 (assay: Confirmatory qHTS for gynecologic anti-cancer compounds from libraries of approved drugs and bioactive compounds). Settings: gynecologic cancer cell panel viability, ATPlite luminescence, 48 h; series mostly up to 57.6 µM.
Procedure, shortened: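 Viability is measured as ATP-dependent luciferase light using ATPlite, read 15 min after reagent addition at room temperature. Compounds, in DMSO, span 57.5 uM down to 0.977 nM over 11 threefold steps for 48 h.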
Note: nearly all actives have a fitted effect of over 55% in size.
Potency is the fitted concentration of half-maximal effect.

Compound	Potency
COC(=O)c1ccc2c(C(=Nc3ccc(N(C)C(=O)CN4CCN(C)CC4)cc3)c3ccccc3)c(O)[nH]c2c1	inconclusive: 24.3 µM [cytotoxic, partial curve, poor fit]
CC[C@H](CC#N)OC(=O)N[C@@H](C)c1cccc(NC(=O)Nc2ccc(-c3cnco3)c(OC)c2)c1	inconclusive: 0.193 µM [rising, partial curve, poor fit]
CCN1C[C@H](C)n2c(c(O)c3c(=O)n(Cc4ccc(F)c(Cl)c4)nc(C(=O)NC)c32)C1=O	inconclusive: 0.0061 µM [rising, full curve]
CCOC(=O)C1=C(C)NC2=C(C(=O)CC(C)(C)C2)C1c1ccc(-c2ccccc2)cc1 (stereo not drawn)	inactive
Nc1ncnc2c1ncn2[C@@H]1O[C@H](CO)C[C@H]1O	inactive
C[C@@]1(C(=O)Nc2ccc(F)nc2)CCCN1c1nc(Nc2cc(C3CC3)[nH]n2)c2cccn2n1	inconclusive: 7.69 µM [cytotoxic, single point]
Cc1ccc(C(=O)N(CCCN)C(c2oc3cc(Cl)ccc3c(=O)c2Cc2ccccc2)C(C)C)cc1 (stereo not drawn)	inconclusive: 0.0172 µM [cytotoxic, full curve, poor fit]
CN(Cc1cnc2nc(N)nc(N)c2n1)c1ccc(C(=O)N[C@@H](CCC(=O)O)C(=O)O)cc1	inconclusive: 0.193 µM [cytotoxic, full curve, poor fit]
CNC(=O)c1ccccc1Nc1nc(Nc2ccc(N3CCOCC3)cc2OC)ncc1Cl	inconclusive: 6.85 µM [cytotoxic, partial curve, poor fit]
Cc1cc(C(=O)N2CCN(c3cccc(Cl)c3)CC2)n(-c2ccccc2)n1	active: 2.43 µM
CC[C@@]1(O)C(=O)OCc2c1cc1n(c2=O)Cc2c-1nc1ccccc1c2/C=N/OC(C)(C)C	active: 0.0153 µM
CNC(=O)c1nn(C)c2c1C(C)(C)Cc1cnc(Nc3ccc(N4CCN(C)CC4)cc3)nc1-2	inconclusive: 8.63 µM [cytotoxic, partial curve]
COc1ccc2cc3[n+](cc2c1OC)CCc1cc2c(cc1-3)OCO2	inactive
C[C@]12CCC(=O)C=C1CC[C@@H]1[C@@H]2[C@@H](O)C[C@@]2(C)[C@H]1CC[C@]2(O)C(=O)CO	inactive
Nc1cccc(-c2cc3c(Oc4cccc(O)c4)ncnc3[nH]2)c1	inconclusive: 43.2 µM [cytotoxic, single point]
COc1ccc(-c2cc3nccn3c(Nc3ncccc3C(N)=O)n2)cc1OC	inconclusive: 0.485 µM [rising, partial curve]
COc1cc(N2CCC(N3CCN(C)CC3)CC2)ccc1Nc1ncnc(Nc2ccccc2S(=O)(=O)C(C)C)n1	inconclusive: 21.7 µM [cytotoxic, partial curve]
CC(C)Nc1cc(-c2c[nH]c(C(=O)N[C@H](CO)c3cccc(Cl)c3)c2)c(Cl)cn1	inconclusive: 0.0039 µM [rising, full curve, poor fit]
C1CCC(C(CC2CCCCN2)C2CCCCC2)CC1 (stereo not drawn)	active: 24.3 µM

By substructure: the compounds so far with fluorine.
Compound	Potency
CCN1C[C@H](C)n2c(c(O)c3c(=O)n(Cc4ccc(F)c(Cl)c4)nc(C(=O)NC)c32)C1=O	inconclusive: 0.0061 µM [rising, full curve]
C[C@@]1(C(=O)Nc2ccc(F)nc2)CCCN1c1nc(Nc2cc(C3CC3)[nH]n2)c2cccn2n1	inconclusive: 7.69 µM [cytotoxic, single point]

Going on with the list:

Compound	Potency
Cc1nc(NC(=O)N2CCCC2C(N)=O)sc1-c1ccnc(C(C)(C)C(F)(F)F)c1 (stereo not drawn)	inconclusive: 21.7 µM [rising, partial curve]
CN(C)CC/C=C1\c2ccccc2COc2ccccc21	inactive
NC(=O)c1ccc2nc(-c3ccc(Oc4ccc(Cl)cc4)cc3)[nH]c2c1	inconclusive: 0.0544 µM [rising, partial curve, poor fit]
COc1ccc(OC)c(-c2nnc3ccc(-c4ccc(OC)c(O[C@@H]5CCOC5)c4)nn23)c1	inconclusive: 7.69 µM [cytotoxic, single point]
c1cc(N[C@@H]2CCNC2)nc(-c2cnc3ccc(-c4cn[nH]c4)cn23)c1	inconclusive: 0.0968 µM [rising, full curve]
CCCc1nn(C)c2c(=O)[nH]c(-c3cc(S(=O)(=O)N4CCN(C)CC4)ccc3OCC)nc12	inactive
CNC(=O)CN1CCC(Oc2cc3c(Nc4cccc(Cl)c4F)ncnc3cc2OC)CC1	inconclusive: 0.137 µM [rising, full curve, poor fit]
CN(C)c1ccc2nc3ccc(=[N+](C)C)cc-3sc2c1	inconclusive: 9.68 µM [cytotoxic, full curve]
COc1ccccc1N1CCN(CC(O)COc2cccc3ccccc23)CC1 (stereo not drawn)	inconclusive: 38.5 µM [cytotoxic, single point]
O=C(O)c1ccc(Nc2ncc3c(n2)-c2ccc(Cl)cc2C(c2c(F)cccc2F)=NC3)cc1	inactive
Cc1c(NC(=O)OCC2COCCN2)cn2ncnc(Nc3ccc4c(cnn4Cc4cccc(F)c4)c3)c12 (stereo not drawn)	inconclusive: 24.3 µM [cytotoxic, partial curve]
Nc1ccc(-c2ccc3ncc4ccc(=O)n(-c5cccc(C(F)(F)F)c5)c4c3c2)cn1	inconclusive: 0.968 µM [cytotoxic, full curve]
COc1cc(N2CCC(N(C)C)CC2)ccc1Nc1ncc(Cl)c(Nc2ccccc2P(C)(C)=O)n1	inconclusive: 6.11 µM [cytotoxic, full curve]
Cn1cc(-c2ccc3ncc(Cc4ccc5ncccc5c4)n3n2)cn1	inactive
Cn1c(=O)c(-c2c(Cl)cccc2Cl)cc2cnc(Nc3cccc(C(=O)O)c3)nc21	active: 2.73 µM
CN1C(=O)C(Cc2c[nH]c3ccccc23)NC1=S (stereo not drawn)	inactive
Cc1ccc(C(N)=O)cc1Nc1nccc(-c2cn(C(C)C)c3cnccc23)n1	inconclusive: 17.2 µM [cytotoxic, partial curve]
CN1CCN(c2cccc(Nc3nc4c(-c5ccc(S(C)(=O)=O)cc5)cccn4n3)c2)CC1	inconclusive: 15.3 µM [cytotoxic, partial curve, poor fit]
CCN(CC)CCCC(C)Nc1c2ccc(Cl)cc2nc2ccc(OC)cc12 (stereo not drawn)	inconclusive: 30.6 µM [cytotoxic, single point]
